Test results from PMC6476931.
No constants are given. Whether binding was seen depends on the method and setting. Some entries that bind do so weakly or less than the wild type.

Amino acid sequences for entries named in this document (tags omitted). Residues count along the entry.
UniProt Q9KI13, residues 51-895: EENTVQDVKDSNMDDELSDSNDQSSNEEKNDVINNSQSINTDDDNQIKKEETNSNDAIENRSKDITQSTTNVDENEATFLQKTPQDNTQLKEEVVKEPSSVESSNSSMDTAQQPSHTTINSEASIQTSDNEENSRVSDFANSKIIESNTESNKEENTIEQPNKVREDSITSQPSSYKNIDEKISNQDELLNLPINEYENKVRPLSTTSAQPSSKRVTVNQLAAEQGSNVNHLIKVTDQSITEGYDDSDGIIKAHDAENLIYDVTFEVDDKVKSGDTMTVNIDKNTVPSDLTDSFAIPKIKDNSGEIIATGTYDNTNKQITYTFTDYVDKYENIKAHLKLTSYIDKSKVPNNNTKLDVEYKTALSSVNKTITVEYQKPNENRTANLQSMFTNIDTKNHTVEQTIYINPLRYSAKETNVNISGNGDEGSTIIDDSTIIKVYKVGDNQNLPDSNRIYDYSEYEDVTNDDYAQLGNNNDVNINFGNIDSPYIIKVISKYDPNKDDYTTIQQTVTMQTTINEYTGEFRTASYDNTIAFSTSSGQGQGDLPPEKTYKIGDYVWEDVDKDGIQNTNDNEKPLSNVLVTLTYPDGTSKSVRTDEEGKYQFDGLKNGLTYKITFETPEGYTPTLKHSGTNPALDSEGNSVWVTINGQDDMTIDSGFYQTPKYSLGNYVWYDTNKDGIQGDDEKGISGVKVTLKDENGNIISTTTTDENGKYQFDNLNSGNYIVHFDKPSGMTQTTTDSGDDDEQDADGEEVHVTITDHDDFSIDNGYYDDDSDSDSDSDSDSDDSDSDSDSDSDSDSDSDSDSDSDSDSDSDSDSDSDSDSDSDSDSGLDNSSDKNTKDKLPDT

Target: SdrG (UniProt Q9KI13)
Experiment: ELISA; competition: Fg coated (5 μg/ml); GST-vWbp-N (6 nM), GST-Coa-N (400 nM) or SdrG (50 nM) mixed with increasing concentrations of Fg β-chain (1-25) peptide or scrambled peptide; detected with HRP anti-GST or anti-His; both purified

In the case of QGVNDNEEGFFSARGHRPLDKKREE [Fg β-chain peptide (1-25)], the binding is reported as “binds”.
